In this experiment the target is MCPH1-BRCT-eCR (tandem BRCT domain of MCPH1 fused to eGFP) (mouse) (UniProt Q7TT79). Briefly: pull-down.

The chains behind the UniProt entries cited, without tags or fusion partners. Where a name states a change or a piece, a line headed by the entry shows the natural chain unless it says otherwise.
UniProt Q7TT79: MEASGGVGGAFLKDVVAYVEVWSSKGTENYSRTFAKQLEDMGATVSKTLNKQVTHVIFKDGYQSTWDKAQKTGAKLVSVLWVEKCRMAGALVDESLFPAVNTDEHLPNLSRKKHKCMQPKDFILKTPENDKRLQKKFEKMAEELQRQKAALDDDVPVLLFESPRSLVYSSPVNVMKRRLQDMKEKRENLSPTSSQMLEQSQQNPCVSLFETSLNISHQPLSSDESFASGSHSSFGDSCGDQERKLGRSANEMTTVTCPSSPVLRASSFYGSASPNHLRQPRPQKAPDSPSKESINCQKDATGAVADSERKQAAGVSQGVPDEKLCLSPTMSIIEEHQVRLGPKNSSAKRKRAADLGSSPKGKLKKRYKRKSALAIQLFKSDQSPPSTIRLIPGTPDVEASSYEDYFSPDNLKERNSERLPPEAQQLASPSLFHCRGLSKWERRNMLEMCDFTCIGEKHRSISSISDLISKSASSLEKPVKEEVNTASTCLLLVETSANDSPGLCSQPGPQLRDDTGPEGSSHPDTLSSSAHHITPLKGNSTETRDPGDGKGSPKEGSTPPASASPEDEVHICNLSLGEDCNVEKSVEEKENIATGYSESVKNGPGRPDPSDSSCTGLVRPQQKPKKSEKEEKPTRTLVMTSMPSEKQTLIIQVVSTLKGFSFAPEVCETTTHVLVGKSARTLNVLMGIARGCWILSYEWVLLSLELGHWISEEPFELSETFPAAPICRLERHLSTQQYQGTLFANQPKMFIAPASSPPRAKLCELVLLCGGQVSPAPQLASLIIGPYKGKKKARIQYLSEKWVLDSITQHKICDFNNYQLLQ

Results are given in words; binding and its absence hold for the method and conditions named. In cells and extracts the contact can be indirect. A result given as binding can be weak or reduced; the word gives no strength.

As to “yH2AX (histone H2A variant X phosphorylated at Serine 139) (from UniProt P27661 1-143)”, the binding entry was “binds”.

These data come from article doi:10.1101/2024.10.23.619792.
